For at least one entry, the source does not settle the construct or the ends of the probe. For some of these results: At least one result comes from cells or an extract, where the contact may be indirect. For some of these results: Tags and fusion partners may be left off the protein sequences shown. For some of these results: At least one verdict was read from the data and is not stated in words by the source.
Experiments:
[1] = system: CTGF TSP1 domain / deletion mutants (SPR) (human); test: SPR; conditions: 3' PEG (high molecular mass); SPR: PBS running buffer, CTGF on CM5 chip, aptamer 9.375-600 nM, 10 ul/min (SA chip with biotinylated aptamer for cytokines and CTGF deletion mutants); recombinant protein; label: biotin or Cy5 depending on assay; single-stranded DNA
CTGF (CCN2) = biological target: T1, CTGF (CCN2) (UniProt P29279); test: dot blot; conditions: minimum protein 2 ng; 3' PEG (high molecular mass); dot blot: nitrocellulose, 10% BSA block, 1 uM biotinylated aptamer, room temperature; pH not stated; commercial protein; label: biotin or Cy5 depending on assay; single-stranded DNA
T1 sequence (looked up, limits assumed): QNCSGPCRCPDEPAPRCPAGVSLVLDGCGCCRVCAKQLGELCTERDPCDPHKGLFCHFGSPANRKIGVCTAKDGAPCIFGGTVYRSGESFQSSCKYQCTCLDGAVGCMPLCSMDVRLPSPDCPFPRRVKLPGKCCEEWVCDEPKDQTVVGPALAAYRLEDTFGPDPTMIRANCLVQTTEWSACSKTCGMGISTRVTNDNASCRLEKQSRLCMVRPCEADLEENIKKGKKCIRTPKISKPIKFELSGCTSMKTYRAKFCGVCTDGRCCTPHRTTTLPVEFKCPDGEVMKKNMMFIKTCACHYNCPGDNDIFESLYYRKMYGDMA

[2] = biological target: T2, murine CTGF (serum) (mouse) (UniProt P29268); test: pull-down, Western blot; conditions: 3' PEG (high molecular mass); dot blot: nitrocellulose, 10% BSA block, 1 uM biotinylated aptamer, room temperature; pH not stated; protein in an extract; label: biotin or Cy5 depending on assay; single-stranded DNA
T2 sequence (looked up, limits assumed): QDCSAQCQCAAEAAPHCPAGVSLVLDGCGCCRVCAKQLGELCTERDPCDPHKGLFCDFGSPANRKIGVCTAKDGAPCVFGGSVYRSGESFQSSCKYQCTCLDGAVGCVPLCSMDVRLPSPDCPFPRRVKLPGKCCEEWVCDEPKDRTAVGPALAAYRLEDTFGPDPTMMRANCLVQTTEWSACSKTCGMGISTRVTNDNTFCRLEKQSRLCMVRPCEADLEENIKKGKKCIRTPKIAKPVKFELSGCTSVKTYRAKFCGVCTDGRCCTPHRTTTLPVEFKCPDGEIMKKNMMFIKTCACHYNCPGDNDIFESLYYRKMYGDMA

[3] = biological target: CTGF TSP1 domain / deletion mutants containing it (human) (UniProt P29279); test: cell-surface immunofluorescence; conditions: bound most tightly among domains; 3' PEG (high molecular mass); dot blot: nitrocellulose, 10% BSA block, 1 uM biotinylated aptamer, room temperature; pH not stated; protein on the cell surface; protein details: N-terminal FLAG, C-terminal GPI anchor; label: biotin or Cy5 depending on assay; single-stranded DNA

Measured: binding result

AGGCCGGGAGGGTACCCATTGATGGTGTGATGACTGCCT [AptW2-1-39-PEG]
binds: [1] | CTGF (CCN2) | [2] | [3]

From PMC9389230, “Connective tissue growth factor-targeting DNA aptamer suppresses pannus formation as diagnostics and therapeutics for rheumatoid arthritis”
